Experimental data: the supplement of paper PMC6411743
± gives the standard deviation of the averaged measurements. Only a part is listed here, and it is no random draw.

Experiments:
Assay in all cases: NP40-soluble protein abundance relative to vehicle (solubility fold change) (ratio); higher = more soluble protein in presence of ATP
AATF = target: T1, AATF (UniProt Q9NY61)
T1 sequence (whole entry): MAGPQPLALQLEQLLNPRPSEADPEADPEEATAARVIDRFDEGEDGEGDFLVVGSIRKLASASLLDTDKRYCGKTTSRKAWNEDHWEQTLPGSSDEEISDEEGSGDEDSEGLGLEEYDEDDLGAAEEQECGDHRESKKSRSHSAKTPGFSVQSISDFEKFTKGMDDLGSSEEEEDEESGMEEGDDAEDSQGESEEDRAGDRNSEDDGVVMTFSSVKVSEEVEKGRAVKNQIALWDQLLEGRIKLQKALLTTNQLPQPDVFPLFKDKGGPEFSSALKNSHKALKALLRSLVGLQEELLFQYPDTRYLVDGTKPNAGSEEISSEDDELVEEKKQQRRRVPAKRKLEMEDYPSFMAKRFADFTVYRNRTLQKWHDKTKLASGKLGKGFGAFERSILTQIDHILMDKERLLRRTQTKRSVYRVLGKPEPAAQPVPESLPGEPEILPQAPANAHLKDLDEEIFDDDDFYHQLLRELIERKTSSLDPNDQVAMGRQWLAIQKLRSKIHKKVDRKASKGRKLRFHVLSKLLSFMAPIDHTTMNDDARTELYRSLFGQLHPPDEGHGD
Summary of the method: (§1)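 Jurkat crude lysate (Dounce-homogenised) was treated with eight concentrations from 0.1 to 10 mM for 10 min at room temperature, then 3 min at 37 °C. It was solubilised with 0.8% NP40 and benzonase (60 min, 4 °C) and ultracentrifuged, and the supernatant was TMT-labelled for LC-MS/MS. Intensities were vsn-normalised, and the value is the fold change against the NP40-processed vehicle per replicate, from three independent experiments.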

DCP1A = target: T2, DCP1A (UniProt Q9NPI6)
T2 sequence (whole entry): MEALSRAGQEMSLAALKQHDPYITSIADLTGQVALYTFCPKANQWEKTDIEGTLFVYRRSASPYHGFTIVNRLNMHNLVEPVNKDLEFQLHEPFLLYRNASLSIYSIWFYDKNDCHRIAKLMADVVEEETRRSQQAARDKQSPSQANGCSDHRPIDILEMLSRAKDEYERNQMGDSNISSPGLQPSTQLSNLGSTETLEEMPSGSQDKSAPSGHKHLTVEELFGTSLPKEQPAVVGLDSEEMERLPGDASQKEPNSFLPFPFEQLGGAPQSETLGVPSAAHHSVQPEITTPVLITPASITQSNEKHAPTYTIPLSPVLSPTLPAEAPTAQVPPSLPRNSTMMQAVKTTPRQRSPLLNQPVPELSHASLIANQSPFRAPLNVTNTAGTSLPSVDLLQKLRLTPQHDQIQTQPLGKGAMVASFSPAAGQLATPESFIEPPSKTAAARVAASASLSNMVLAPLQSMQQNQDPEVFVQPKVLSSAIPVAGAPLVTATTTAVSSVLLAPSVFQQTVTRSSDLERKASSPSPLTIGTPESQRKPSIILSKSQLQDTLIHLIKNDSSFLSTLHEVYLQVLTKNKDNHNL
Summary of the method: as §1

FARSB = target: T3, FARSB (UniProt Q9NSD9)
T3 sequence (whole entry): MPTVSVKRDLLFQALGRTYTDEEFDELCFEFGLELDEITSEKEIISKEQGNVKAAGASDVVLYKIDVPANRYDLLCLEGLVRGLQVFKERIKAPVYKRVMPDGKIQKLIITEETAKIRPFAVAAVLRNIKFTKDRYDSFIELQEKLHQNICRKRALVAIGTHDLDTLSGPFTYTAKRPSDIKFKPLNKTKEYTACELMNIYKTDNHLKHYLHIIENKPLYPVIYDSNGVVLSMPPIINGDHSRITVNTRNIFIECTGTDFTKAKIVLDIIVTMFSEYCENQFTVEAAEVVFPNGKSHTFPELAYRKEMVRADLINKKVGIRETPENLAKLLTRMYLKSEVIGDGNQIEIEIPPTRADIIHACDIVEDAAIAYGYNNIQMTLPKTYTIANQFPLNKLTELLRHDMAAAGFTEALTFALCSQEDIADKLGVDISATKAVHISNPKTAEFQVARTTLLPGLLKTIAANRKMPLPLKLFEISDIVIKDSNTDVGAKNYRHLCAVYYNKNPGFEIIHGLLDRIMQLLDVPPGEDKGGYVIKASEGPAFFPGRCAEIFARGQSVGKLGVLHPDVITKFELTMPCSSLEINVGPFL
Summary of the method: as §1

HSPBP1 = target: T4, HSPBP1 (UniProt Q9NZL4)
T4 sequence (whole entry): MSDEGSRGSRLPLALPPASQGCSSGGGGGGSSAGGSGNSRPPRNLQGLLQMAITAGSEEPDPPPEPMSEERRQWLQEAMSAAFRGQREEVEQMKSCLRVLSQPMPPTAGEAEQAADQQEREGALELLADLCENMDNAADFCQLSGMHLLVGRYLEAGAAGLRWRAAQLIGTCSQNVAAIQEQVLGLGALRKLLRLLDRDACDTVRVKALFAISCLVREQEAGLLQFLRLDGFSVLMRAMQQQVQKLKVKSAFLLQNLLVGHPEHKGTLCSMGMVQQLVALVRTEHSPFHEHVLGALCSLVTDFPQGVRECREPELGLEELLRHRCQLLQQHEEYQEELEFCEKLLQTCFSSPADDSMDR
Summary of the method: as §1

MED17 = target: T5, MED17 (UniProt Q9NVC6)
T5 sequence (whole entry): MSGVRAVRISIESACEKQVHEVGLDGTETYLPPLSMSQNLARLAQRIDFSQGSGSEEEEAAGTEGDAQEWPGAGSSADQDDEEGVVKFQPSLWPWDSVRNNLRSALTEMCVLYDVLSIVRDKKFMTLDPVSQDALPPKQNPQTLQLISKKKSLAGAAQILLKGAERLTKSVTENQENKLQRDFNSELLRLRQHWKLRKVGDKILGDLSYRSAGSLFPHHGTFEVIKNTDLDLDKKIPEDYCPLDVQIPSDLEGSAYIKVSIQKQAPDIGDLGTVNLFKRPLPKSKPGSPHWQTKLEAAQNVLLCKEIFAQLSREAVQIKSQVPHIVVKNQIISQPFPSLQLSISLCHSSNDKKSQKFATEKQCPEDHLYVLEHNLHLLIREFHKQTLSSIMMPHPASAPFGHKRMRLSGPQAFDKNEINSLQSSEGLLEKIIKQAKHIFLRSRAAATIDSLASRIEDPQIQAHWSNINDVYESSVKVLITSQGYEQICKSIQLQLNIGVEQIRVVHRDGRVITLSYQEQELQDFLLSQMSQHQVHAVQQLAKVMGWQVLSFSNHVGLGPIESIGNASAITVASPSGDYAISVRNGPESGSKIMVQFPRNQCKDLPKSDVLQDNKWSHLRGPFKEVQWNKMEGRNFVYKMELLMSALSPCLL
Summary of the method: as §1

RBM12 = target: T6, RBM12 (UniProt Q9NTZ6); conditions: concentration: 1mM
T6 sequence (whole entry): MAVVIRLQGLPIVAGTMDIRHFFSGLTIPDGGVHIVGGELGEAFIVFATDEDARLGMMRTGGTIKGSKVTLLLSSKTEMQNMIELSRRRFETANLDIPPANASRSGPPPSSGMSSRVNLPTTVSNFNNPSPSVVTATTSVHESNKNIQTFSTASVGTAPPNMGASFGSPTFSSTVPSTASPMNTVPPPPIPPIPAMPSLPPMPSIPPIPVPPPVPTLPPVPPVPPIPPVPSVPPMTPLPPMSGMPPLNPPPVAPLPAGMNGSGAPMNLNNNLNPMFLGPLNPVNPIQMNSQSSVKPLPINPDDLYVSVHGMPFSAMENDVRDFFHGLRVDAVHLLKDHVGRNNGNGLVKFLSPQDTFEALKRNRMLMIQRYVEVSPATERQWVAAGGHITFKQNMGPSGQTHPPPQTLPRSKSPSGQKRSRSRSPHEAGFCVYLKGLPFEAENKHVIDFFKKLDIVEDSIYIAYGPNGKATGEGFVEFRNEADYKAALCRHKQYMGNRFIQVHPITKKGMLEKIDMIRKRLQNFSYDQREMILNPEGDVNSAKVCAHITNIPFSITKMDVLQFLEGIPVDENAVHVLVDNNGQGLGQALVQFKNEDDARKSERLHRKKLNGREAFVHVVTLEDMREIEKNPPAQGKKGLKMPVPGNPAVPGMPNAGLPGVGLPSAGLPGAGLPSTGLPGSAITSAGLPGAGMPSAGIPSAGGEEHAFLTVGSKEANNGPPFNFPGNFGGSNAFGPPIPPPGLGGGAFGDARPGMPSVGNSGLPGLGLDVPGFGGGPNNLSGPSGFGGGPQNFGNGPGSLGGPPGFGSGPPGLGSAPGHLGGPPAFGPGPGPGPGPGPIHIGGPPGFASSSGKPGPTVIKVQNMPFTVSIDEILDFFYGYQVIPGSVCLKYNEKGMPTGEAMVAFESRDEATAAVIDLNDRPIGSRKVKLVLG
Summary of the method: as §1

## Nc1ncnc2c1ncn2[C@@H]1O[C@H](COP(=O)(O)OP(=O)(O)OP(=O)(O)O)[C@@H](O)[C@H]1O [adenosine triphosphate]
AATF; concentration: 1mM
  NP40-soluble protein abundance: 1.03 ± 0.084
AATF; concentration: 2mM
  NP40-soluble protein abundance: 1.09 ± 0.085
AATF; concentration: 4mM
  NP40-soluble protein abundance: 1.15 ± 0.11
AATF; concentration: 6mM
  NP40-soluble protein abundance: 1.22 ± 0.034
AATF; concentration: 8mM
  NP40-soluble protein abundance: 1.22 ± 0.085
AATF; concentration: 10mM
  NP40-soluble protein abundance: 1.29 ± 0.078
DCP1A; concentration: 1mM
  NP40-soluble protein abundance: 0.978 ± 0.017
DCP1A; concentration: 2mM
  NP40-soluble protein abundance: 0.965 ± 0.019
DCP1A; concentration: 4mM
  NP40-soluble protein abundance: 0.984 ± 0.037
DCP1A; concentration: 6mM
  NP40-soluble protein abundance: 0.98 ± 0.02
DCP1A; concentration: 8mM
  NP40-soluble protein abundance: 0.958 ± 0.021
DCP1A; concentration: 10mM
  NP40-soluble protein abundance: 0.959 ± 0.023
FARSB; concentration: 1mM
  NP40-soluble protein abundance: 0.999 ± 0.07
FARSB; concentration: 2mM
  NP40-soluble protein abundance: 0.96 ± 0.065
FARSB; concentration: 4mM
  NP40-soluble protein abundance: 0.943 ± 0.053
FARSB; concentration: 6mM
  NP40-soluble protein abundance: 0.926 ± 0.11
FARSB; concentration: 8mM
  NP40-soluble protein abundance: 0.986 ± 0.045
FARSB; concentration: 10mM
  NP40-soluble protein abundance: 0.931 ± 0.063
HSPBP1; concentration: 1mM
  NP40-soluble protein abundance: 0.901 ± 0.039
HSPBP1; concentration: 2mM
  NP40-soluble protein abundance: 0.922 ± 0.022
HSPBP1; concentration: 4mM
  NP40-soluble protein abundance: 0.899 ± 0.033
HSPBP1; concentration: 6mM
  NP40-soluble protein abundance: 0.849 ± 0.077
HSPBP1; concentration: 8mM
  NP40-soluble protein abundance: 0.877 ± 0.046
HSPBP1; concentration: 10mM
  NP40-soluble protein abundance: 0.87 ± 0.062
MED17; concentration: 1mM
  NP40-soluble protein abundance: 1.01 ± 0.053
MED17; concentration: 2mM
  NP40-soluble protein abundance: 0.996 ± 0.064
MED17; concentration: 4mM
  NP40-soluble protein abundance: 1.04 ± 0.068
MED17; concentration: 6mM
  NP40-soluble protein abundance: 0.983 ± 0.064
MED17; concentration: 8mM
  NP40-soluble protein abundance: 1.03 ± 0.068
MED17; concentration: 10mM
  NP40-soluble protein abundance: 1.03 ± 0.052
RBM12
  NP40-soluble protein abundance: 0.962 ± 0.075
